# From patent US20210115071A1, “NANOSCALE METAL-ORGANIC FRAMEWORKS FOR ENHANCED TUMOR CHEMORADIATION” (Oregon State University, priority 2019, published 2021)
# At least one structure is not confirmed: it was looked up by name or label, or the drawing left a doubt.
# Experiment: Drug loading of Hf-BDC nMOF (encapsulation efficiency)
# Assay type: physicochemical
# Conditions: loaded in Hf-BDC nMOF
# Protocol: nMOFs were suspended in either 18 MΩ water (generation 1) or methanol (generation 2) at 5 mg/mL depending on colloidal stability. nMOF redispersed in water at 5 mg/mL was combined with fucoidan or dextran (both at 1 mg/mL in 18 MΩ water) at a 1:1 v/v ratio, sonicated for 1 hour, and filtered. nMOF redispersed in methanol at 5 mg/mL was combined with fucoidan or dextran (both at 1 mg/mL in 18 MΩ water) at a 1:1 v/v ratio, sonicated for 15 mins and stirred open overnight. After evaporation nMOFs were redispersed to 2.5 mg/mL nMOF in water and subsequently filtered. For drug loading, all steps remained the same except that drug dissolved in DMSO (Tal and/or TMZ or Cyanine 7.5) was added to the nMOF in water or methanol, sonicated for one hour, and washed by centrifuge twice (collecting the supernatant for quantification) before continuing with either surface coating procedure.
compound,measurement,value
"Cn1nnc2c(C(N)=O)ncn2c1=O [TMZ, temozolomide]",average encapsulation efficiencies (EE),90%
